pIC50: −log10 of the molar value. Structures were worked out from names or drawings and are uncertain.
Experiments:
Format in all cases: biochemical
FGFR4 = FGFR4 (Homo sapiens (Human), UniProt P22455); assay: HTRF KinEASE-TK kinase assay, FGFR4
Method: (§1) Kinase activity was monitored using a HTRF® KinEASE-TK kit from Cisbio (62TK0PEC). […] FGFR-4 was purchased from Promega. 0.333 ng/ul FGFR4 (5.12 nM) was preincubated in the absence or presence of inhibitor at room temperature for 3 hours. Reaction with substrate was then initiated by adding biotinylated substrate and ATP. […] The reaction was terminated by adding 31.25 nM SA-XL665 and 100 fold diluted europium labelled antibody (Eu-Ab), diluted in 1× detection buffer that contained EDTA. After 60 min of incubation, the fluorescence emission was measured at 620 nm and 665 nm. The ratio of Em 665 nm to Em 620 nm was proportional to the amount of substrate phosphorylated by the kinase. […] The top 13 compounds together with known inhibitor Ibrutinib were further selected for dose response analysis where compounds were tested from final concentrations ranging from 24 μM to 25 uM.

The chains behind the UniProt entries cited, without tags or fusion partners. Residues count along the entry.
UniProt P22455, 22-802 limits assumed: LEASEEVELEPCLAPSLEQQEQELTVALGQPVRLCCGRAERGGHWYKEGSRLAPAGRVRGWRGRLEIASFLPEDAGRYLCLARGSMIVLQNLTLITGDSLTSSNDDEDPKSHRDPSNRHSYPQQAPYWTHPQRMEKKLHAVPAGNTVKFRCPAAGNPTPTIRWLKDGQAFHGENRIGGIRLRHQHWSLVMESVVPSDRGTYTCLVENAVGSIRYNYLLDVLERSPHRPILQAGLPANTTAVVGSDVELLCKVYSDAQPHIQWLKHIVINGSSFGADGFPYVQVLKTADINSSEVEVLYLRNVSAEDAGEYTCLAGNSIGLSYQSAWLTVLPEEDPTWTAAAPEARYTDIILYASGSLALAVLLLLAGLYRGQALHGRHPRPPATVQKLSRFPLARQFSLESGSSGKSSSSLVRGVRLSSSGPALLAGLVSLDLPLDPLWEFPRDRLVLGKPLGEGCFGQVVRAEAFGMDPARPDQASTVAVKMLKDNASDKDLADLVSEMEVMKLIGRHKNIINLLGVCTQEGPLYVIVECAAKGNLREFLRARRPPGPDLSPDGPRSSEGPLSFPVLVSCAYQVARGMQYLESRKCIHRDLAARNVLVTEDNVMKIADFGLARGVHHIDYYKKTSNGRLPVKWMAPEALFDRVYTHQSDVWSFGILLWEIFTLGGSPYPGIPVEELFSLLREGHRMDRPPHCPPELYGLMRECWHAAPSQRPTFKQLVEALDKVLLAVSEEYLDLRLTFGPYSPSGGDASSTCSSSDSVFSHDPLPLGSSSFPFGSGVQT
UniProt P00533, 25-1210 limits assumed: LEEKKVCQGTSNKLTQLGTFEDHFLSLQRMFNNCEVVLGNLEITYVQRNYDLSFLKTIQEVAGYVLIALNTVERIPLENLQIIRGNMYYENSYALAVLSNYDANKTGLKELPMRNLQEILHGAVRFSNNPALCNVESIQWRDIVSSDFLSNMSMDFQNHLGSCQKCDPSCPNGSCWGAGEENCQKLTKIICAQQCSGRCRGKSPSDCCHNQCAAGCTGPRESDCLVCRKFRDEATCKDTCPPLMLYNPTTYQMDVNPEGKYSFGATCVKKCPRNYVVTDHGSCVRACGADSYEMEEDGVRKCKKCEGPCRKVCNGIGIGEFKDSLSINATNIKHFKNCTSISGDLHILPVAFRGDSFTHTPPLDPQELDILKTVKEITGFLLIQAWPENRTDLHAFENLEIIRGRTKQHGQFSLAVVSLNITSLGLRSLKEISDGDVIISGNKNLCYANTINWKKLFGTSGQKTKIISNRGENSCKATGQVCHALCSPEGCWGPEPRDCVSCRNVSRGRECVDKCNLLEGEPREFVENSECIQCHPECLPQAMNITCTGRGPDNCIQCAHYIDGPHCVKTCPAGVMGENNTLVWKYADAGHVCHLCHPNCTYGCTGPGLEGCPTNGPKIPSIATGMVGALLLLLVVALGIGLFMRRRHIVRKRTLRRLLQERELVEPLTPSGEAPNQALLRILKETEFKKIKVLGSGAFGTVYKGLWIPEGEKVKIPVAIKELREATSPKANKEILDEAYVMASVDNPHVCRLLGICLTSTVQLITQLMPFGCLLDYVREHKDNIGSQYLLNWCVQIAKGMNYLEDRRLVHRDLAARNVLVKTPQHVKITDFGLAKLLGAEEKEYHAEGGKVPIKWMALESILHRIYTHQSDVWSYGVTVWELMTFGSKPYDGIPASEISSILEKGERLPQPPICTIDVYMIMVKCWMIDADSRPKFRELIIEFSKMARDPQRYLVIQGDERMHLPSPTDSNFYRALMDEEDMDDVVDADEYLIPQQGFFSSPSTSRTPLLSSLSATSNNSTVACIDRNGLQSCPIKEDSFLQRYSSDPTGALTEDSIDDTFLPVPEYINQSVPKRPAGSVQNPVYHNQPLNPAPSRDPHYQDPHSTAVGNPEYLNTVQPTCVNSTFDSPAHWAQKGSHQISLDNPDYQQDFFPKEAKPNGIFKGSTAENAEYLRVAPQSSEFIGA
UniProt P51813, whole entry: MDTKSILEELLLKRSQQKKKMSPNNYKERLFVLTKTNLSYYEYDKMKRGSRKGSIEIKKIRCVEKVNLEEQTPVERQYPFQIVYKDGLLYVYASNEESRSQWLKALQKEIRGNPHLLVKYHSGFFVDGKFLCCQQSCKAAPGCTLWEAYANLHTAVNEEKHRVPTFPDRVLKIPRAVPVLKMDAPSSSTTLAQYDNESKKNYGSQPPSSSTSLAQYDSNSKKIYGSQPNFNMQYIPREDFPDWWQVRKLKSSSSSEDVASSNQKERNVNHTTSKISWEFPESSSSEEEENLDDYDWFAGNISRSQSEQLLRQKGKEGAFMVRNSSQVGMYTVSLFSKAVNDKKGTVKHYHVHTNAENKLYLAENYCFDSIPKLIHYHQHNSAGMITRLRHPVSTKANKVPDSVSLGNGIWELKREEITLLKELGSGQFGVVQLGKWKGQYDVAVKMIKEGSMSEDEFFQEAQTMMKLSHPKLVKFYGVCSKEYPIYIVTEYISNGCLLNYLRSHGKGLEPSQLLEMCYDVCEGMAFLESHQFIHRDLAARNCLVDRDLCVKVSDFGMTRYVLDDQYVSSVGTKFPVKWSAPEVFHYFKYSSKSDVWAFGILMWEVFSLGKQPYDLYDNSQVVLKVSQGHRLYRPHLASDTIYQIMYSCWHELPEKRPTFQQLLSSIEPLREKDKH
UniProt P52333, 781-1124 limits assumed: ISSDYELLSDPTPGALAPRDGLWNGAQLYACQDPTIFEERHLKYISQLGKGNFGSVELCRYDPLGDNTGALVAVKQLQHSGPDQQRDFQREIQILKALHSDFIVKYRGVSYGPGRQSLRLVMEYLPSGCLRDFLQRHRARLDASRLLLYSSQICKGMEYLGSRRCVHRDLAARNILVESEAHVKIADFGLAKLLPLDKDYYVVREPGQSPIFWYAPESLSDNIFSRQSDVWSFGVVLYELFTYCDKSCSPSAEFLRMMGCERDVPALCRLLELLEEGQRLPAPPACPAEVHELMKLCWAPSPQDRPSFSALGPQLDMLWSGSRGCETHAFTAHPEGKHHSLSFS
UniProt Q06187, 2-659 limits assumed: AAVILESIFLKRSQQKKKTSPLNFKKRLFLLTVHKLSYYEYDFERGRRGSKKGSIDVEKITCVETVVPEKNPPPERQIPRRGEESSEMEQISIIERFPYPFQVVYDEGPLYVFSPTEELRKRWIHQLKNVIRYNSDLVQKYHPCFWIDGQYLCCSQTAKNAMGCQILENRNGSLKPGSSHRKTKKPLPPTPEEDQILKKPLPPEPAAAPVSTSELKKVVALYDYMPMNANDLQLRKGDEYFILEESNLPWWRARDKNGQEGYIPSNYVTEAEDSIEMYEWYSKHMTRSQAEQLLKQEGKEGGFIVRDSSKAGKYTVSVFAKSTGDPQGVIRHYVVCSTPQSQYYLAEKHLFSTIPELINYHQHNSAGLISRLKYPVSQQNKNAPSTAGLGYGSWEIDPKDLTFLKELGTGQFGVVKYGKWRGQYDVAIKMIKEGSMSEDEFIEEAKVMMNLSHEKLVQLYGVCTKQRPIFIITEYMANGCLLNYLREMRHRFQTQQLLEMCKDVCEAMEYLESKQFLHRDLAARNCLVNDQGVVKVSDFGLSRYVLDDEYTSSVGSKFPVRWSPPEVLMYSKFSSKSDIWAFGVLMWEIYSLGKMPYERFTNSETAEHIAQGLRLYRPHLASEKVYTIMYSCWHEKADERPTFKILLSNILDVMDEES

EGFR = EGFR (Homo sapiens (Human), UniProt P00533); assay: HTRF KinEASE-TK kinase assay, EGFR; details: 3 h preincubation
BMX = BMX (Homo sapiens (Human), UniProt P51813); assay: HTRF KinEASE-TK kinase assay, BMX; details: 3 h preincubation
Method: as §1, with “BMX” for “FGFR-4”, “BMX (3.03” for “FGFR4 (5.12”, “The reaction” for “Reaction”, “Reaction” for “The reaction”

JAK3 = JAK3 (Homo sapiens (Human), UniProt P52333); assay: HTRF KinEASE-TK kinase assay, JAK3
Method: as §1, with “JAK-3” for “FGFR-4”, “0.0133” for “0.333”, “JAK3 (0.21” for “FGFR4 (5.12”

BTK = BTK (Homo sapiens (Human), UniProt Q06187); assay: HTRF KinEASE-TK kinase assay, BTK; details: 3 h preincubation

**Q.** How did the “% FGFR4 Remaining activity vs DMSO (1 μM, 3 h)” value (FGFR4; 1 μM, 3 h) turn out when COCCOc1ccc(Nc2ncc(F)c(Nc3cccc(NS(=O)(=O)c4c(F)c(F)c(F)c(F)c4OCF)c3)n2)cc1 was run?
**A.** Its value is “C (<50%)”.

**Q.** And the “% FGFR4 Remaining activity vs DMSO (10 μM, 3 h)” value (FGFR4; 10 μM, 3 h)?
**A.** Its value is “C (<50%)”.

**Q.** And the pIC50 (FGFR4; read-out: FGFR4 IC50, dose response)?
**A.** Its pIC50 is > 6.00.

**Q.** What about the “% EGFR Remaining activity vs DMSO (1 μM, 3 h)” value (EGFR; 1 μM compound) of the same compound?
**A.** The value was “A (>90%)”.

**Q.** And the “% EGFR Remaining activity vs DMSO (10 μM, 3 h)” value (EGFR; 10 μM compound)?
**A.** The value was “A (>90%)”.

**Q.** And the “BMX - 1 uM % remaining” value (BMX; 1 uM compound)?
**A.** Its value is “C (<50%)”.

**Q.** And the “BMX - 10 uM % remaining” value (BMX; 10 uM compound)?
**A.** Its value is “C (<50%)”.

**Q.** What about the “% JAK3 Remaining activity vs DMSO (1 μM, 3 h)” value (JAK3; 1 μM) of the same compound?
**A.** Its value is “A (>90%)”.

**Q.** And the “% JAK3 Remaining activity vs DMSO (10 μM, 3 h)” value (JAK3; 10 μM)?
**A.** Its value is “C (<50%)”.

**Q.** And the “% BTK Remaining activity vs DMSO (1 μM, 3 h)” value (BTK; 1 μM compound)?
**A.** The value was “C (<50%)”.

**Q.** What about the “% BTK Remaining activity vs DMSO (10 μM, 3 h)” value (BTK; 10 μM compound) of the same compound?
**A.** Its value is “C (<50%)”.
